# According to PubChem BioAssay AID1347075 (National Center for Advancing Translational Sciences (NCATS), 2019):
# The whole screen tested about 400,000 compounds, of which about 5,500 (1.4%) were called active. This list was built around the results that the source calls inconclusive (neither active nor inactive); the mix of calls is not that of the screen. The call rests on the fitted dose curve; in most records, active means well fitted cell-killing curve with a large enough effect; inconclusive means small, poorly fitted or top-dose-only effect, or effect the other way; inactive means flat fitted curve, though single readings scatter. Potencies beside an inconclusive call are fits to weak or partial responses and may not hold up.
# Experiment: qHTS assay for MDR1-selective chemotherapeutics: Primary screen using the parental adenocarcinoma cell KB-3-1; further: nearly all actives have a fitted effect of over 60% in size
# Conditions: KB-3-1 viability, CellTiter-Glo ATP luminescence, 72 h; activity change, negative = cytotoxic: at 46.1 µM (top of the series)
# How it was run: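 Cells are dispensed, compounds pinned in, plates held at 37 °C for 72 h, then CellTiter-Glo is added and luminescence read after 10 minutes. Cell line: parental KB-3-1 in phenol-red-free DMEM, 10% FBS.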
# On the % scale 0 is the no-effect control and ±100 the full control effect; potency means the concentration at half of the fitted maximal effect.
SMILES,Potency,"activity change, negative = cytotoxic"
CCOC(=O)c1[nH]c(C)c(C(=O)Nc2cc(Cl)ccc2C)c1C,"inconclusive: 0.0116 µM [cytotoxic, full curve, poor fit]",–
N#Cc1cc(N2CCOCC2)nc2ccccc12,–,inconclusive: -69.7%
O=C(/C=C/c1ccco1)NC(=S)Nc1ccc(N2CCOCC2)c(Cl)c1,active: 4.11 µM,–
NC(Cc1ccccc1)c1csc(Nc2cc(Oc3ccccc3)ncn2)n1 (stereo not given),"inconclusive: 29.1 µM [cytotoxic, single point]",–
Cc1cccc(OCC(=O)Nc2ccc3nc(SCc4ccccc4)sc3c2)c1,inactive,–
COc1cccc(OCCCN2CCN(S(=O)(=O)c3ccc(NC(C)=O)cc3)CC2)c1,"inconclusive: 18.4 µM [cytotoxic, partial curve, poor fit]",–
COC(=O)[C@@]1(Cc2ccc(F)cc2)[C@H]2c3cc(C(=O)N4CCCC4)n(Cc4ccc(C)o4)c3C[C@H]2CN1C(=O)c1ccccc1,"inconclusive: 18.4 µM [cytotoxic, single point]",–
Cc1ccc(S(=O)(=O)N2C[C@]3(O)C[C@@H]4C(=O)N(c5ccccc5)C(=O)[C@@H]4C[C@]3(OC(=O)NC3CCCC3)C2)cc1,inactive,–
Brc1ccc(-c2nn3c(-c4ccco4)nnc3s2)o1,"inconclusive: 20.6 µM [rising, single point]",–
CCc1cc(=O)oc2cc(C)c3c(C)coc3c12,inactive,–
Cc1ccc(Nc2nc(-c3ccc(O)c(O)c3)cs2)nc1,"inconclusive: 20.6 µM [cytotoxic, single point]",–
Cc1ccc(NC(=O)c2ccccc2NS(=O)(=O)c2ccc(F)cc2)cc1S(=O)(=O)N1CCCCC1,"inconclusive: 18.4 µM [cytotoxic, single point]",–
CCc1cccc(C)c1NC(=O)c1cc(CN2CCCC2)on1,inactive,–
CCOCc1nnc(NC(=O)CS(=O)(=O)c2ccc(C)cc2)s1,"inconclusive: 32.6 µM [rising, single point]",–
O=C(Nc1ccc2c(c1)OCCO2)C(c1ccnc2ccccc12)n1c(=O)c(-c2ccco2)nc2ccccc21 (stereo not given),inactive,–
COc1ccc(NC(=O)c2cccc(-c3ccc(O)cc3)c2)cn1,"inconclusive: 16.4 µM [cytotoxic, single point]",–
Cc1ccc(NC(=O)C2CCN(S(=O)(=O)c3ccc4c(c3)oc(=O)n4C)CC2)cc1,inactive,–
COc1ccc2nc(SCC(=O)N(C)C3CCCCC3)[nH]c2c1,inactive,–
COc1ccc(N(CC(=O)N2CCN(c3cccc(Cl)c3)CC2)S(=O)(=O)c2c(C)noc2C)cc1,"inconclusive: 16.4 µM [cytotoxic, single point]",–
CCc1nnc2c(Nc3cc(OC)c(Cl)cc3OC)nc3ccccc3n12,inactive,–
Cc1ccc(-c2n[nH]c(=S)n2/N=C/c2c(C)[nH]n(-c3ccccc3)c2=O)cc1,"inconclusive: 20.6 µM [cytotoxic, single point]",–
CCN(CC1CCCN(CCc2cccc(F)c2)C1)C(=O)c1cc2ccccc2o1 (stereo not given),"inconclusive: 29.1 µM [cytotoxic, single point]",–
Cc1cccc(CSc2nc3ccccc3c(=O)n2C)c1,"inconclusive: 16.4 µM [cytotoxic, single point]",–

# Entries above containing a furan ring, fused or not:
SMILES,Potency,"activity change, negative = cytotoxic"
O=C(/C=C/c1ccco1)NC(=S)Nc1ccc(N2CCOCC2)c(Cl)c1,active: 4.11 µM,–
COC(=O)[C@@]1(Cc2ccc(F)cc2)[C@H]2c3cc(C(=O)N4CCCC4)n(Cc4ccc(C)o4)c3C[C@H]2CN1C(=O)c1ccccc1,"inconclusive: 18.4 µM [cytotoxic, single point]",–
Brc1ccc(-c2nn3c(-c4ccco4)nnc3s2)o1,"inconclusive: 20.6 µM [rising, single point]",–
CCc1cc(=O)oc2cc(C)c3c(C)coc3c12,inactive,–
O=C(Nc1ccc2c(c1)OCCO2)C(c1ccnc2ccccc12)n1c(=O)c(-c2ccco2)nc2ccccc21 (stereo not given),inactive,–
CCN(CC1CCCN(CCc2cccc(F)c2)C1)C(=O)c1cc2ccccc2o1 (stereo not given),"inconclusive: 29.1 µM [cytotoxic, single point]",–

# (list continues)

SMILES,Potency,"activity change, negative = cytotoxic"
CCn1ncc(Cl)c1C(=O)NC(=S)Nc1ccccc1Br,"inconclusive: 20.6 µM [cytotoxic, single point]",–
NS(=O)(=O)c1ccc(CCNC(=O)CN2C(=O)COc3ccc(S(=O)(=O)N4CCCC4)cc32)cc1,–,inconclusive: -8.38%
O=C1CN(C(=S)Nc2ccc(OC(F)F)cc2)CCN1,inactive,–
COc1ccc(-c2nc3c(c(=O)[nH]c(=O)n3Cc3ccccc3)n2Cc2ccccc2)cc1,"inconclusive: 29.1 µM [cytotoxic, single point]",–
CC(=O)OC1CCC2(C)C3CCC4(C)C(C(C)=O)CCC4C3CC3OC32C1 (stereo not given),"inconclusive: 29.1 µM [cytotoxic, single point]",–
Cc1ccc(S(=O)(=O)NCc2ccncc2)cc1,"inconclusive: 0.206 µM [rising, full curve]",–
O=C1CCN(Cc2ccccc2)S(=O)(=O)c2c(F)cc(F)cc21,inactive,–
CCCN1CCN(CCCNC(=O)c2cc3c(s2)-c2c(C)cccc2OC3)CC1,"inconclusive: 29.1 µM [cytotoxic, single point]",–
NC(=O)c1c(NC(=O)CS(=O)(=O)c2ccc(Cl)cc2)sc2c1CCCC2,inactive,–
O=[N+]([O-])c1ccc(/C=C/C2=NN(c3ccccc3)C(c3ccco3)C2)o1 (stereo not given),active: 7.31 µM,–
O=C(c1cccc(Cl)c1)N(Cc1cccc(F)c1)C1CCS(=O)(=O)C1 (stereo not given),inactive,–
C=CCc1ccc(OCCOCCOc2cccc3ccc(C)nc23)c(OC)c1,inactive,–
O=C(NNC1=NCCCCC1)Nc1cccc(Cl)c1,inactive,–
O=C(CCc1nc2ccccc2c(=O)[nH]1)NCc1ccco1,"inconclusive: 29.1 µM [cytotoxic, single point]",–
Cc1ccc(-c2nn(CCC(=O)Nc3ccc(OC(F)(F)F)cc3)c(=O)c3ccccc23)cc1,–,inconclusive: -9.87%
CC(C)Cn1c(-c2ccccc2)nc2ccccc2c1=O,"inconclusive: 29.1 µM [cytotoxic, single point]",–
CCC(=O)NC(=S)Nc1ccc2oc(-c3ccc(OC)cc3)nc2c1,"inconclusive: 16.4 µM [rising, partial curve]",–
COCC(C)NC(=O)COc1ccc(Cl)cc1Cl (stereo not given),"inconclusive: 29.1 µM [cytotoxic, single point]",–
CC(C)N1CCc2c(sc(NC(=O)CCS(=O)(=O)c3ccccc3)c2C(N)=O)C1,"inconclusive: 23.1 µM [cytotoxic, single point]",–
Cc1cc(C)nc(Nc2n[nH]c(COc3ccc(Cl)cc3)n2)n1,"inconclusive: 29.1 µM [cytotoxic, single point]",–
Nc1c(C(=O)NC2CCCC2)c2nc3ccccc3nc2n1N,inactive,–
COC(=O)[C@@]1(Cc2ccc(OC)cc2)[C@H]2c3cc(C(=O)N4CCCC4)n(CCc4ccc(OC)c(Br)c4)c3C[C@H]2CN1C(=O)c1ccccc1,"inconclusive: 18.4 µM [cytotoxic, single point]",–
